Results reported in publication PMC8277133, “Os(II)-Bridged Polyarginine Conjugates: The Additive Effects of Peptides in Promoting or Preventing Permeation in Cells and Multicellular Tumor Spheroids” (Inorganic Chemistry, 2021).
Where a SMILES comes first, the peptide text is derived from it. [ ]: non-standard residue; d: D form. The star is where a group is joined. X1 = O=C(c1ccc(-c2cc(-c3ccccn3)nc(-c3ccccn3)c2)cc1)*; Ahx = NCCCCCC(=O)O

Tested on: A549 cells
Test: Co-localization studies with MitoTracker Deep Red and LysoTracker Green in A549 cells
Format: cell-based

N=C(N)NCCC[C@@H](NC(=O)[C@@H](CCCNC(=N)N)NC(=O)[C@@H](CCCNC(=N)N)NC(=O)[C@@H](CCCNC(=N)N)NC(=O)CCCCCNC(=O)c1ccc(-c2cc(-c3ccccn3)nc(-c3ccccn3)c2)cc1)C(N)=O [[Os-(R4)2]^10+] ({X1-Ahx}-[dR][dR][dR][dR]-NH2)
Pearson's coefficient, co-localization with MitoTracker Deep Red (A549 cells, 30 μM/24 h, MitoTracker Deep Red 100 nM): 0.56 | Subcellular distribution (A549 cells, 30 μM/48 h, co-staining with Lysotracker Green): localization of the conjugate in lysosomal structures | Pearson's coefficient, co-localization with Lysotracker Green (live A549 cells, 30 μM, 48 h, Lysotracker Green 50 nM): 0.69
